The values below come from PMC11139901.

Assay [1] concerns the target T1, AQR (human (endogenous in 293T)), O60306.
T1 chain: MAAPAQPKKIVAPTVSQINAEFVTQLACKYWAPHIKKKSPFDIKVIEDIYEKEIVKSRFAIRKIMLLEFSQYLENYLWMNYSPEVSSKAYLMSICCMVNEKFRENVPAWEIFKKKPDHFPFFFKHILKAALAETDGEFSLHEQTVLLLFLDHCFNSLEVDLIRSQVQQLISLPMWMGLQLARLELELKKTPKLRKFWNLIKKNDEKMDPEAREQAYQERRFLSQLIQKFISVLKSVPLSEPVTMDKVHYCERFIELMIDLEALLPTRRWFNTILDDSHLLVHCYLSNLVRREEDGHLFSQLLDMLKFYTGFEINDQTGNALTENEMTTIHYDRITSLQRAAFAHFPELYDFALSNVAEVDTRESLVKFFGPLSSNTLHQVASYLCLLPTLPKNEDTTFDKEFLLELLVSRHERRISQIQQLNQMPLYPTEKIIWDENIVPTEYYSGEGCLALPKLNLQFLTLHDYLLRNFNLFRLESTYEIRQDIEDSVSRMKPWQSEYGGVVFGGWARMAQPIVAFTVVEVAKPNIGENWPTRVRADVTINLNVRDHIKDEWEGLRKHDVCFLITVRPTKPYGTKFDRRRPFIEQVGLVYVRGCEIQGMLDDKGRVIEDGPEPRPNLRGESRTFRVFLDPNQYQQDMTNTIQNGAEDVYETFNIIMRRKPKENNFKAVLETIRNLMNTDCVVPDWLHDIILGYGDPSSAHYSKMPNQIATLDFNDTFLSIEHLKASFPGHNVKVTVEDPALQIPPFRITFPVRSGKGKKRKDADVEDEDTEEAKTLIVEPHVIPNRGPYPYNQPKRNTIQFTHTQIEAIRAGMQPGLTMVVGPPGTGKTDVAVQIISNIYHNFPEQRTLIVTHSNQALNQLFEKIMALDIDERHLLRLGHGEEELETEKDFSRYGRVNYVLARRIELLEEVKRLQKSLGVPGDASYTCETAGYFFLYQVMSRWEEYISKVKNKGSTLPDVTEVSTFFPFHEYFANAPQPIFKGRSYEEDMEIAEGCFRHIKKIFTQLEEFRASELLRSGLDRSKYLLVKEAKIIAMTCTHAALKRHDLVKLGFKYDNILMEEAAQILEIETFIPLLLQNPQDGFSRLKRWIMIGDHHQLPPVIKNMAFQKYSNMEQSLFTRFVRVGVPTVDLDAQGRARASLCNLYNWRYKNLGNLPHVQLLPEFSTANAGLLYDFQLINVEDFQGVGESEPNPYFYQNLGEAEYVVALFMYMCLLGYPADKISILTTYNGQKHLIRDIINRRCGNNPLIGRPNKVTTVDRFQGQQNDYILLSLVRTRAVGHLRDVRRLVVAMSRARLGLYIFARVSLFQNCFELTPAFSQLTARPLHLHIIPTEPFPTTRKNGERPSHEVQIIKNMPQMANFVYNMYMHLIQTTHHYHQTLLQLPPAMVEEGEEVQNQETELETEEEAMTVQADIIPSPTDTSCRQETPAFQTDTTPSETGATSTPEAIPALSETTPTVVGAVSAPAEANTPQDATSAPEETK
The assay is described as follows: co-IP; reciprocal co-IP of Dbr1 and AQR in 293T cells, western blot of both immunoprecipitations; n = 3. Particulars: remark: other sources report otherwise. For orientation: Immunoblotting shows a protein as a band on a membrane.

The target in assay [2] is T2, Dbr1 (as in the reciprocal co-IP with AQR in 293T cells) (human), Q9UK59.
T2 chain: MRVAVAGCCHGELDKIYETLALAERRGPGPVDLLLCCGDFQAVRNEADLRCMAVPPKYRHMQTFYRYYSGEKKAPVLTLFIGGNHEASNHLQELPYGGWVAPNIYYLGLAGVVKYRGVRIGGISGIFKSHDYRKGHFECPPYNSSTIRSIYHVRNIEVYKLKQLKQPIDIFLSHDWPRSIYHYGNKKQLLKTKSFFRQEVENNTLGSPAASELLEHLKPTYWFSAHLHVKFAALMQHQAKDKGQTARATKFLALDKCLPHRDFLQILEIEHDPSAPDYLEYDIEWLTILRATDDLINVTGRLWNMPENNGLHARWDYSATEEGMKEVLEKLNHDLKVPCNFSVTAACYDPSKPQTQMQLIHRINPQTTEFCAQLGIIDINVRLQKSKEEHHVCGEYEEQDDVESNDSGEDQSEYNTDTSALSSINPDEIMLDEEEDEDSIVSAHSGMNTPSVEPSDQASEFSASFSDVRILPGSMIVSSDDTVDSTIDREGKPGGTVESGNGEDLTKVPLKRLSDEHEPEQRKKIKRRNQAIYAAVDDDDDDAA
The assay is described as above. Conditions: remark: other sources report otherwise.

Results are given in words; binding and its absence hold for the method and conditions named. In cells and extracts the contact can be indirect. Some binding calls cover weakened binding; strength is not graded here.

B1: Dbr1 (as in the reciprocal co-IP with AQR in 293T cells), Q9UK59 1-544 (enzyme)
chain: T2 chain
For B1, the binding result in assay [1] is listed as “binds”.

B2: AQR, O60306 1-1485 (protein)
chain: T1 chain
For B2, the binding result in assay [2] is on record as “binds”.
